{
  "sequences": {"note": "The chains behind the UniProt entries cited, without tags or fusion partners. Where a name states a change or a piece, a line headed by the entry shows the natural chain unless it says otherwise.", "UniProt Q13283": "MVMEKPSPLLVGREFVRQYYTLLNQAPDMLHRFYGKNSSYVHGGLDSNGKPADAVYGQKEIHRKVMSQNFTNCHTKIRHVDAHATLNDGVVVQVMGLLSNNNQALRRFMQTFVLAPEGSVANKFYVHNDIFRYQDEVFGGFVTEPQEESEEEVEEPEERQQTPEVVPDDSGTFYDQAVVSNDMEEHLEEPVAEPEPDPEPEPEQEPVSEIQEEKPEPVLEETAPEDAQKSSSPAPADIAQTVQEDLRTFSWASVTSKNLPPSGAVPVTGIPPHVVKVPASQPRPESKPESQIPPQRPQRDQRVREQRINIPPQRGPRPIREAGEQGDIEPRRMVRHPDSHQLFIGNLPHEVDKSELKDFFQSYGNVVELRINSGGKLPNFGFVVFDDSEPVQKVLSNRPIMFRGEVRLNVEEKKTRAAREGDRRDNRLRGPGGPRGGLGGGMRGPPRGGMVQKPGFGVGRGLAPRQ", "UniProt P26196": "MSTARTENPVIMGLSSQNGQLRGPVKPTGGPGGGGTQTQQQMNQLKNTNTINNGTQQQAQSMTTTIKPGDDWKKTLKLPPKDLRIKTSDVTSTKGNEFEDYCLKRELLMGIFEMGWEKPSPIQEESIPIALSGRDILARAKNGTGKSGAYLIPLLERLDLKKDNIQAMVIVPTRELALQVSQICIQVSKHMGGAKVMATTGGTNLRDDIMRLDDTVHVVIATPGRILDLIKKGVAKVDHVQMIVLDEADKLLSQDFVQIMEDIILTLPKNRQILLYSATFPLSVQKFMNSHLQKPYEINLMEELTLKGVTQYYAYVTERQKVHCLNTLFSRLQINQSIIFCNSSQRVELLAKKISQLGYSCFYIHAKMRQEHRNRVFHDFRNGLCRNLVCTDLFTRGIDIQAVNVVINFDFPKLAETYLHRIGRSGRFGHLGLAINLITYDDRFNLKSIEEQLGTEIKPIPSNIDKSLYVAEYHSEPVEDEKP", "UniProt P07339": "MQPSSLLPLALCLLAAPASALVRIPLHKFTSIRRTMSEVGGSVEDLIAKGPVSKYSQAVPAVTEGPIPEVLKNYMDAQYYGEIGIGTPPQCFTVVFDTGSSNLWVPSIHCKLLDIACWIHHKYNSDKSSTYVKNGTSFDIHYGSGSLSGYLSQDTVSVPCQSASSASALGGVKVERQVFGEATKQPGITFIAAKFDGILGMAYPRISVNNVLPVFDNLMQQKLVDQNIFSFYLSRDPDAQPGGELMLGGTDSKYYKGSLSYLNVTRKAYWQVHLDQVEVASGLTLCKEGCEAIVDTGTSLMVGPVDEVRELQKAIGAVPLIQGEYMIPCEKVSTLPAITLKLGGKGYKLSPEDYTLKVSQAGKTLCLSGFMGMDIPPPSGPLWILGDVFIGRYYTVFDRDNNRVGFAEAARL"},
  "source": "paper PMC12440071",
  "key": {"[1]": {"target": "HA-G3BP1 (UniProt Q13283)", "assay": "co-IP; HEK293T cells transfected with HA control or HA-DDX6/G3BP1, treated with 1 mM LLOMe for 1 h or 30 min followed by a 30 min recovery; lysates immunoprecipitated with anti-HA antibody and immunoblotted"}, "[2]": {"target": "HA-DDX6 (DEAD-Box Helicase 6) (UniProt P26196)", "assay": "co-IP; HEK293T cells transfected with HA control or HA-DDX6/G3BP1, treated with 1 mM LLOMe for 1 h or 30 min followed by a 30 min recovery; lysates immunoprecipitated with anti-HA antibody and immunoblotted"}},
  "note": "Results are given in words; binding and its absence hold for the method and conditions named. In cells and extracts the contact can be indirect. A result given as binding can be weak or reduced; the word gives no strength.",
  "data": [
    {"substance": "Cathepsin D (from UniProt P07339) (enzyme)", "values": [
      {"measurement": "binding", "setting": "[1]", "value": "binds"},
      {"measurement": "binding", "setting": "[2]", "value": "binds"}
    ]}
  ]
}
